Experimental data published in patent publication US20040248099A1, “Use of intermediate -conductance potassium channels and modulators for diagnosing and treating diseases having disturbed keratinocyte activity” (priority 2000, published 2004).
At least one structure is not confirmed: it was looked up by name or label, or the drawing left a doubt. Where no end group is shown, it is not given here.

System: HaCaT keratinocytes
Assay: Patch-clamp recording of the membrane potential of HaCaT keratinocytes (current clamp; ATP-induced response)
Type: cell-based, human
Conditions: bradykinin 10 μM, n=3
Description: In order to identify an ion channel which is substantially involved in the transduction of wound healing-specific signals, HaCaT cells were investigated electrophysiologically. The HaCaT keratinocytes were propagated in DEM containing 10% FCS (Gibco BRL) to which antibiotics (penicillin/streptomycin, 100 U/ml) had been added. […] The patch pipettes were prepared from small borosilicate tubes on a horizontal pulling device (DMZ, Zeitz) using the two-step pulling method. […] The resistance of these patch pipettes was 5-8 GΩ in the bath. After a seal in the GΩ range had been produced (typically 1.5-2 GΩ) the amplifier was switched to current clamp mode. […] The electrophysiological signals were recorded, amplified and digitalized using an Axopatch 200 amplifier in combination with a TL-1 Labmaster Interface and AXOTAPE software (Axon Instruments). The statistical analysis (one-way ANOVA with Bonferri post-test comparison) was carried out using Graphpad prism 2.0. […]
The inflow of liquid was gravity-dependent and was controlled by means of magnetic valves. Outflow was effected by applying a negative pressure using a vacuum pump. Substances were added, while observing visually, directly into the keratinocytes under investigation using a remotely controlled, magnet-controlled Y tube system (diameter of the efflux tube: 100 μm). […]

Sequence: RPPGFSPFR [bradykinin]
- electrophysiological response compared with ATP: practically identical quantitatively and kinetically
